{"source": "patent US20020010201A1", "about": "(priority 1999, published 2002)", "tested_on": "patients with RLS", "assay": "Treatment of 2 patients with RLS (therapeutic history, monotherapies and combination therapy of pramipexole and clonidine)", "settings": "previous therapy; prescribed for limited time only", "description": "1. […] The clonidine was also initially prescribed in a single dose of 0.075 mg two hours before bedtime and increased by 0.075 mg at intervals of 3 days.\n2. Treatment with a Combination Therapy of Clonidine and Pramipexole After slowly bringing the clonidine therapy to a complete halt and after a treatment-free period of about 1 week, both patients were treated with a combination of 0.088 mg of pramipexole and 0.075 mg of clonidine. […] After 7 days the dosage of pramipexole had been increased to 0.18 mg and the dosage of clonidine to 0.15 mg, two hours before going to sleep.", "note": "For at least one compound, name, drawing or mass did not settle the structure."}
{"smiles": "O=C1Nc2ccc(Cl)cc2C(c2ccccc2)=NC1O", "note": "(stereo not shown) [oxazepam]", "values": [{"measurement": "falling asleep and sleeping through", "result": "improved the falling asleep and sleeping through"}]}
